Results: article PMC13501995
Results are given in words; binding and its absence hold for the method and conditions named. Some binding calls cover weakened binding; strength is not graded here.

The chains behind the UniProt entries cited, without tags or fusion partners.
UniProt Q9H6L5: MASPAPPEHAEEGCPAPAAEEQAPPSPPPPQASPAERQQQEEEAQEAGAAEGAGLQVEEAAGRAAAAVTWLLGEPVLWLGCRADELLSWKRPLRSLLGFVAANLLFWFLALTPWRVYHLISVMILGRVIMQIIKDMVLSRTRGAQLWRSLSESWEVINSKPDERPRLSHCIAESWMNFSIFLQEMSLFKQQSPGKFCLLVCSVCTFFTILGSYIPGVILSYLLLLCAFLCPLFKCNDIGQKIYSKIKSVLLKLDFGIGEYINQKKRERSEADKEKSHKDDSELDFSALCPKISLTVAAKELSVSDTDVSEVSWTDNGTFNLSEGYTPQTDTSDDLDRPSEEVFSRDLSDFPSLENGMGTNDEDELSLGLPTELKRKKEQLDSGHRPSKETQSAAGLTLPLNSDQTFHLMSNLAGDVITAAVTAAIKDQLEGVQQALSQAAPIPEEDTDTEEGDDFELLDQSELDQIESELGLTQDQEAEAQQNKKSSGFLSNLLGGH

Key:
[1] = target: SFB-RETREG1 purified from infected HeLa cells (UniProt Q9H6L5); assay: native gel or EMSA; both purified
[2] = target: S-protein-FLAG-streptavidin binding peptide (SFB)-RETREG1, purified from HEK293T cells (UniProt Q9H6L5); assay: native gel or EMSA; blue native PAGE (4-12% gradient) of purified SFB-RETREG1 incubated with S-LPS or lipid A at 37°C for 2 h; immunoblot with anti-FLAG; both purified

Substance	binding [1]	binding [2]
SFB-RETREG1 purified from infected HeLa cells (from UniProt Q9H6L5 1-497)	binds	–
S-protein-FLAG-streptavidin binding peptide (SFB)-RETREG1, purified from HEK293T cells (from UniProt Q9H6L5 1-497)	–	binds
